Values quoted from earlier work, collected in patent US7585833B2, “Malodor covering perfumery” (Givaudan Fragrances Corporation, priority 2005, dated 2009).
Some entries share one result that the patent states for a list of compounds. For at least one compound, name, drawing or mass did not settle the structure.

Conditions: high flux and high air impact odorants; about 50 or less; cited from earlier work

| Structure (SMILES) | odor detection threshold values [parts per billion] |
| --- | --- |
| CC12CCC(CC1)C(C)(C)O2 [1,3,3-trimethyl-2-oxabicyclo[2.2.2]octane] | ≤ 50 |
| C=CC=CC#CCCCCC [1,3-undecadien-5-yne] | ≤ 50 |
| CCC12CC3CC1C2C3OC (stereo not shown) [1-Ethyl-3-methoxytricyclo[2.2.1.02,6]heptane] | ≤ 50 |
| C=CC(O)CCCCC (stereo not shown) [1-Octen-3-ol] | ≤ 50 |
| C=CC(C)=CCC1OC1(C)C (stereo not shown) [2,2-Dimethyl-3-(3-methyl-2,4-pentadienyl)oxirane] | ≤ 50 |
| CC(C)=CCCC(C)C=O (stereo not shown) [2,6-dimethyl-5-heptenal] | ≤ 50 |
| CCCC1CCOC(C)S1 (stereo not shown) [2-Methyl-4-propyl-1,3-oxathiane] | ≤ 50 |
| C=CCOC(=O)CCCCC [2-Propenyl hexanoate] | ≤ 50 |
| CCCCCC(=O)CC [3-octanone] | ≤ 50 |
| CC(CC=O)c1ccccc1 (stereo not shown) [3-phenyl butanal] | ≤ 50 |
| CCCCC/C=C/CCC=O [E-4-Decenal] | ≤ 50 |
| CC/C=C\CC/C=C/C=O [Nona-2-trans-6-cis-dienal] | ≤ 50 |
| CC(C)=CC1CC(C)CCO1 (stereo not shown) [Tetrahydro-4-methyl-2-(2-methylpropen-1-yl)pyran] | ≤ 50 |
| CC(=O)OCc1ccccc1 [benzyl acetate] | ≤ 50 |
| CC/C=C\CCOC(C)=O [cis-3-hexenyl acetate] | ≤ 50 |
| CC/C=C\CCOC(=O)OC [cis-3-hexenyl methyl carbonate] | ≤ 50 |
| CC/C=C\CCC=O [cis-4-heptenal] | ≤ 50 |
| C=C(C)[C@H]1CC=C(C)CC1 [d-1-methyl-4-isopropenyl-1-cyclohexene] | ≤ 50 |
| CC(=O)C(C)=O [diacetyl] | ≤ 50 |

| Structure (SMILES) | odor detection threshold values [parts per billion] |
| --- | --- |
| CCOC(=O)CC1(C)OCCO1 [ethyl 2-methyl-1,3-dioxolane-2-acetate] | ≤ 50 |
| CCCC(C)C(=O)OCC (stereo not shown) [ethyl 2-methylpentanoate] | ≤ 50 |
| CCCC(=O)OCC [ethyl butyrate] | ≤ 50 |
| CCCCCC(=O)OCC [ethyl hexanoate] | ≤ 50 |
| CCOC(=O)C(C)CC (stereo not shown) [ethyl-2-methylbutyrate] | ≤ 50 |
| CCCCCCOC(C)=O [hexyl acetate] | ≤ 50 |
| CC(=O)OCCC(C)C [isopentyl ethanoate] | ≤ 50 |
| COC(=O)C=C1CCCC1 [methyl cyclopentylidene acetate] | ≤ 50 |
| CCCCCCOC [methyl hexyl ether] | ≤ 50 |
| C=C1CCCC(C)(C)C1C(=O)OC (stereo not shown) [methyl-2,2-dimethyl-6-methylene-1cyclohexanecarboxylate] | ≤ 50 |
| CCCCCC#CC(=O)OC [methyl-2-octynoate] | ≤ 50 |
| CC(=O)OC1CCCCC1C(C)(C)C (stereo not shown) [o-t-butylycyclohexyl acetate] | ≤ 50 |
| CC(=O)Oc1ccc(C)cc1 [p-cresyl acetate] | ≤ 50 |
| CCCCCOC(C)=O [pentyl acetate] | ≤ 50 |
| CC(=O)OCC=C(C)C [prenyl acetate] | ≤ 50 |
| CC(=O)OC1CC2CC1C1CC=CC21 (stereo not shown) [tricyclodecenyl acetate] | ≤ 50 |
| CCC(=O)OC1CC2CC1C1CC=CC21 (stereo not shown) [tricyclodecenyl propionate] | ≤ 50 |
| CCCCCC1CCC(=O)O1 (stereo not shown) [γ-nonalactone] | ≤ 50 |
